# Percent effect of library compounds

The chains behind the UniProt entries cited, without tags or fusion partners. Residues count along the entry.
UniProt Q4DA54, 1-478: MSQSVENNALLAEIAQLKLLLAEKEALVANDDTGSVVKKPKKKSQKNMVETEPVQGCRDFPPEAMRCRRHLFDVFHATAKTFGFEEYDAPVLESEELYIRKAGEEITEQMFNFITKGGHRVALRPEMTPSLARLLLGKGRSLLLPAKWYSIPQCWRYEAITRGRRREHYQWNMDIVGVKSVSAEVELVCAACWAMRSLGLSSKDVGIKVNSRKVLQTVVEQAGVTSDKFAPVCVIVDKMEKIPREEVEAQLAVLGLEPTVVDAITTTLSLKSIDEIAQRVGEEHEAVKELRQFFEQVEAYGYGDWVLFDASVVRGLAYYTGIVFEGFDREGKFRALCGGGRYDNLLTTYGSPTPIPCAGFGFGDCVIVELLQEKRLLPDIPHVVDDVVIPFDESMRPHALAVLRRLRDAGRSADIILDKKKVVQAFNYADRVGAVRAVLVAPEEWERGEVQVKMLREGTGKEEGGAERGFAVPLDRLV

The values are deposited in ChEMBL (CHEMBL3988442, “University of Dundee, Small-Polar-MMV Screening Library” (2021)).

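Enzyme assay of histidyl-tRNA synthetase; the read-out is not stated. Target: Histidine-tRNA ligase, Trypanosoma cruzi CL Brener (UniProt Q4DA54). Compounds at 30 µM. Direction is inferred from retests: higher values go with stronger inhibition. Size under these conditions: about 69,000 compounds, about 31 of them at 50% or above in at least one test.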

Values are the deposited “Percent Effect”, in %.
How 0% and 100% were set is not recorded. Most values in the screen are low, and negative values occur.
The compounds are a random part of those screened.

{"compound": "CC(C)(C)c1noc(OCC(=O)NC2CCCC2)n1", "percent effect": 5.911}
{"compound": "CCN1CCN(C)C2(CCN(Cc3ccc(C)o3)CC2)C1=O", "percent effect": 7.767}
{"compound": "COc1nn(C)c2c1CCCN(C(=O)COc1ccccc1)C2", "percent effect": 4.294}
{"compound": "COc1cccc(COCC(=O)N2CCCCCC2)c1", "percent effect": 1.775}
{"compound": "Cc1ncsc1-c1nc(Cc2cccs2)nn1C1CCN(C)CC1", "percent effect": 5.882}
{"compound": "CS(=O)(=O)CCn1ccc(NC(=O)Cc2ccccc2F)n1", "percent effect": 10.88}
{"compound": "COc1ccc(CCN2C(=O)O[C@@H]3CN(C4CCSCC4)C[C@@H]32)cc1", "percent effect": 4.386}
{"compound": "CN(C)S(=O)(=O)N1CC[C@]2(C[C@@H](OCc3ccccn3)CO2)C1", "percent effect": 1.149}
{"compound": "N[C@@H]1c2ccccc2C2(CCN(c3cc(C(F)(F)F)ccn3)CC2)[C@H]1O", "percent effect": 20.73}
{"compound": "CC(O)CN1CCN(C(=O)c2ccn(-c3ccc(F)cc3)n2)CC1", "stereo": "configuration not stated", "percent effect": 4.035}
{"compound": "Cc1ccc(N2CCCC(NCC(=O)NC3CCOCC3)C2)nn1", "stereo": "configuration not stated", "percent effect": 4.135}
{"compound": "NC(=O)CS(=O)(=O)Cc1ccc(OCc2ccc(F)cc2)cc1", "percent effect": 3.185}
{"compound": "O=C(O)C[C@@H]1CCN(C(=O)C2CCCC2)C[C@@H]1CCN1CCCCC1", "percent effect": 17.82}
{"compound": "CC(O)CN1CCC(CN(C)Cc2ccc(C#N)cc2)CC1", "stereo": "configuration not stated", "percent effect": 0.6369}
{"compound": "Cc1cc(N(C)CCC(O)c2ccccc2)n2nccc2n1", "stereo": "configuration not stated", "percent effect": 2.4}
{"compound": "O=C(c1ccc(F)cc1)N1CCC2(CCCN2CC2CC2)CC1", "percent effect": 3.759}
{"compound": "CC(c1cccc(-c2ncccc2F)c1)N(C)C", "stereo": "configuration not stated", "percent effect": 6.931}
{"compound": "CC(C)=CCC1(C(=O)O)CCCN(CCC(=O)NC2CC2)C1", "stereo": "configuration not stated", "percent effect": 1.442}
{"compound": "O=C(c1ccc(N2CCCC2)nn1)N1CCCc2cc(F)c(F)cc21", "percent effect": 7.071}
{"compound": "Cn1cc(C2COC3(CCN(C(=O)c4cccn4C)CC3)C2)cn1", "stereo": "configuration not stated", "percent effect": 10.78}
{"compound": "COc1ccc2c(c1)CCCN(C(C)C(=O)N1CCCC1)C2", "stereo": "configuration not stated", "percent effect": 6.579}
{"compound": "Cc1cc(N2CCCN(C(=O)Cc3ccc(O)c(Cl)c3)CC2)ccn1", "percent effect": -1.653}
{"compound": "Cc1nn(CCC#N)c(C)c1CCC(=O)N(C)C", "percent effect": -1.031}
{"compound": "CCc1cc(=O)[nH]c(NC2CCN(S(=O)(=O)c3ccccc3)CC2)n1", "percent effect": 2}
{"compound": "CCN(C(=O)c1c(Cl)cnn1CC)C(C)C(N)=O", "stereo": "configuration not stated", "percent effect": 11.49}
{"compound": "CS(=O)(=O)N1Cc2ccccc2C2(CCN(C(=O)c3ccno3)CC2)C1", "percent effect": 3.008}
{"compound": "COc1cccc(CNC2CCCOc3cc(C)ccc32)n1", "stereo": "configuration not stated", "percent effect": 6.897}
{"compound": "CC(NC(=O)Nc1ccc(-c2csnn2)cc1)C(=O)NC(C)(C)C", "stereo": "configuration not stated", "percent effect": 5.357}
{"compound": "O=C(Nc1cccnc1)[C@H]1C[C@@H]2CCN(Cc3nccs3)C[C@@H]2O1", "percent effect": 3.941}
{"compound": "Cc1cccc(CNCC2(O)CCCN(CC3CCCCC3)C2=O)n1", "stereo": "configuration not stated", "percent effect": 5.83}
{"compound": "COCCN(Cc1sccc1C)C(=O)C1CCCN(C(N)=O)C1", "stereo": "configuration not stated", "percent effect": 11.9}
{"compound": "CC(C)(C)C(NC(=O)CCCS(C)(=O)=O)c1ccc(F)cc1F", "stereo": "configuration not stated", "percent effect": 5.455}
{"compound": "Cc1ncc(C(=O)N2CCCC2c2c(C)nn(C)c2C)s1", "stereo": "configuration not stated", "percent effect": 4.972}
{"compound": "N#Cc1cn(C2CC2)c(=O)n(Cc2cc(-c3cccs3)on2)c1=O", "percent effect": 1.587}
{"compound": "O=C(c1cccc2c1OCCO2)N1CCCC1Cn1cccn1", "stereo": "configuration not stated", "percent effect": 2.521}
{"compound": "OCCn1nnnc1Cc1ccc(Br)cc1", "percent effect": 1.911}
{"compound": "CCCNC(=O)c1cc(C2CCCN(Cc3ccccn3)C2)no1", "stereo": "configuration not stated", "percent effect": 2.281}
{"compound": "O=C(NCc1cncc2c1CCN(Cc1cccs1)C2)C1CC1", "percent effect": 8.197}
{"compound": "c1cc(CN2CCOC[C@H]2c2nc(-c3ccncc3)c[nH]2)ccn1", "percent effect": 2.488}

The last 5 entries again:

Result for O=C(c1cccc2c1OCCO2)N1CCCC1Cn1cccn1 (configuration not stated) was 2.521%.
Result for OCCn1nnnc1Cc1ccc(Br)cc1 was 1.911%.
Result for CCCNC(=O)c1cc(C2CCCN(Cc3ccccn3)C2)no1 (configuration not stated) was 2.281%.
Result for O=C(NCc1cncc2c1CCN(Cc1cccs1)C2)C1CC1 was 8.197%.
Result for c1cc(CN2CCOC[C@H]2c2nc(-c3ccncc3)c[nH]2)ccn1 was 2.488%.